Measured values as given in patent publication US7714134B2, “Compounds and use of tetrahydropyridothiophenes” (4SC AG, priority 2004, dated 2010).
Some of these results come from one statement about several compounds together.

Assays:
[1] = tested on: RKO colon adenocarcinoma cells (RKOp27) arrested by expression of ectopic p27Kip1; experiment: Alamar Blue cell viability assay, cell cycle specific mode of action, RKO p27 induced (arrested by Ponasterone A-induced p27Kip1); format: cell-based, human; details: cells arrested by p27Kip1 induced with 10 μM Ponasterone A, 72 hours incubation
Experimental: To determine the cell cycle specific mode of action, subdlones of RKO colon adenocarcinoma cells (RKOp27 or RKOp21 as described by Schmidt et al. in Oncogene 19, 2423-2429; 2000) are seeded into 96 well flat bottom plates at a density of 16000 cells per well in a volume of 50 μl per well in DMEM growth medium with 10% FCS containing 10 μM Ponasterone A. 24 hours after seeding the 50 μl each of the compound dilutions in DMEM medium are added into each well of the 96 Well plate. Each compound dilution is tested as quadruplicates. Wells containing untreated control cells are filled with 50 μl DMEM medium containing 1% DMSO. The cells are then incubated with the substances for 72 hours at 37° C. in a humidified atmosphere containing 5% carbon dioxide. To determine the viability of the cells, 10 μl of an Alamar Blue solution (Biosource) are added and the fluorescence was measured at an extinction of 544 nm and an emission of 590 nm. For the calculation of the cell viability the emission value from untreated cells is set as 100% viability and the emission rates of treated cells are set in relation to the values of untreated cells. Viabilities are expressed as % values. […]

[2] = tested on: RKO (RKOp27) human colon adenocarcinoma cells; experiment: Alamar Blue cell viability assay, anti-proliferative/cytotoxic activity, RKO p27 uninduced; format: cell-based; details: proliferating cells, absence of the inducer Ponasterone A, 72 hours incubation
Experimental: The anti-proliferative/cytotoxic activity of the compounds described herein, can be tested on subdlones of RKO (RKOp27) human colon adenocarcinoma cells (Schmidt et al., Oncogene 19, 2423-2429; 2000) using the Alamar Blue cell viability assay (described in O'Brien et al. Eur J Biochem 267, 5421-5426, 2000). The compounds are dissolved as 20 mM solutions in dimethylsulfoxide (DMSO) and subsequently diluted in semi-logarithmic steps. DMSO dilutions are further diluted 1:100 into Dulbecco's modified Eagle's medium (DMEM) containing 10% fetal calf serum to a final concentration twice as much as the final concentration in the test. RKO subclones are seeded into 96 well flat bottom plates at a density of 4000 cells per well in a volume of 50 µl per well. […] To determine the viability of the cells, 10 μl of an Alamar Blue solution (Biosource) are added and the fluorescence is measured at an extinction of 544 nm and an emission of 590 nm. […] Viabilities are expressed as % values.
The corresponding IC50 values of the compounds for anti-proliferative/cytotoxic activity are determined from the concentration-effect curves.
Representative IC50 values for anti-proliferation/cytotoxicity determined for the compounds mentioned and numbered as Examples in the examples above follow from the following table A (1st column), in which the numbers of the compound correspond to the numbers of the examples. […]

Cc1ncsc1CCOC(=O)N1CCc2c(sc(NC(=O)c3ccccc3)c2C#N)C1 [Compound 55, 3-Cyano-2-[(1-phenyl-methanoyl)-amino]-4,7-dihydro-5H-thieno[2,3-c]pyridine-6-carboxylic acid 2-(4-methyl-thiazol-5-yl)-ethyl ester]
IC50 [1]: > 60 µM
IC50 [2]: ≤ 3 µM
